Test results published in doi:10.1101/2021.03.29.437455.
These are yes or no findings as the source states them, for the method shown. Binding seen in cells or lysates may run through a third protein. Here binding means that the protein was enriched with, or labelled near, the bait; the list need not be complete.

The chains behind the UniProt entries cited, without tags or fusion partners.
UniProt P12978, whole entry: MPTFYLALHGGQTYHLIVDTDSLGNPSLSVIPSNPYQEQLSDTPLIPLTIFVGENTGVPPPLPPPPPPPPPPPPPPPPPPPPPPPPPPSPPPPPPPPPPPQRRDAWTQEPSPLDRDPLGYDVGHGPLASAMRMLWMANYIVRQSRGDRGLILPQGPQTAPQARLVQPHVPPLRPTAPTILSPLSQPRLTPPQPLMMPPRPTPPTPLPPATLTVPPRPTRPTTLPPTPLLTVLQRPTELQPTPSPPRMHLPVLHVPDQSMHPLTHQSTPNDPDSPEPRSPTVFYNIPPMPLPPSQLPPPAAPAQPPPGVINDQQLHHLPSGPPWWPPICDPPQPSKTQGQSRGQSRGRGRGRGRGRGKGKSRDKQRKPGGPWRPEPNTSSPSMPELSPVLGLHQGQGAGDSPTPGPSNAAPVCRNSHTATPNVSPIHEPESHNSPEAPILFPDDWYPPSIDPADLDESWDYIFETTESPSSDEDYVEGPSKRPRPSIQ

Molecular target: HA-tagged EBNA2 (wt) (Epstein-Barr virus) (UniProt P12978)
Experiment: affinity purification with mass spectrometry

CBF1/RBPJ (from UniProt Q06330 1-500)
binding: binds
